The text below walks through data of paper PMC11945409.

These are yes or no findings as the source states them, for the method shown. Binding can be weak; no strength is given.

For the experiment, the target named is T1, tape measure protein (TMP) gp38 of siphophage T1 (phage T1 (ATCC 11303-B1)) (UniProt Q6XQC4).
T1 sequence: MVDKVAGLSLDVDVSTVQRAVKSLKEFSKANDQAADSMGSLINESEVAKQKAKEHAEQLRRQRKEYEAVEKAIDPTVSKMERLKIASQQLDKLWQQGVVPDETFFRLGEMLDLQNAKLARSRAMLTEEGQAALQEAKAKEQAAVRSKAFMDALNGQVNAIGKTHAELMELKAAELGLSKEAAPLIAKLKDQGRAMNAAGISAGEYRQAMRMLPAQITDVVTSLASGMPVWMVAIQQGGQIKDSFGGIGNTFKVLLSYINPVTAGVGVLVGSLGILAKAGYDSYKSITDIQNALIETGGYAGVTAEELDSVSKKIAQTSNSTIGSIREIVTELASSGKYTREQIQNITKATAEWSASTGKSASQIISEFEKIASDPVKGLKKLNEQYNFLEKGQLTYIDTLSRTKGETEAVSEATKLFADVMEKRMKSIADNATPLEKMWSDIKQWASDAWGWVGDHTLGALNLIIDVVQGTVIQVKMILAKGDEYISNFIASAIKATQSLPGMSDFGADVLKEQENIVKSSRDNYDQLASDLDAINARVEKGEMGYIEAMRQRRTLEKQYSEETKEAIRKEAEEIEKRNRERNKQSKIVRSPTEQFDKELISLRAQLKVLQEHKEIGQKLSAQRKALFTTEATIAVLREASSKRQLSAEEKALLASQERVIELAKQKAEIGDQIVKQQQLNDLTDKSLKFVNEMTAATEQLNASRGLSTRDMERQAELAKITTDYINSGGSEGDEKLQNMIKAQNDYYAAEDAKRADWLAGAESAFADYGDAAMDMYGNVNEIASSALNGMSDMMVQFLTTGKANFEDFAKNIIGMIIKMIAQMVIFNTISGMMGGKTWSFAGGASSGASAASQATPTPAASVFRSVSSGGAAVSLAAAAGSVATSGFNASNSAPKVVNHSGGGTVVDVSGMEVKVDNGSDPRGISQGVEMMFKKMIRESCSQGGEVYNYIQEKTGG
In words: cryo-EM structure; tail tip of purified mature T1 virions (laboratory-adapted, no lateral fibers); 6.1 Å, after local refinement 4.3 Å, threefold symmetry imposed.

Consider insertion protein gp34 of siphophage T1, for which the binding entry is listed as “binds”.
